Measurements: the supplement of paper PMC10849652
The list shows a part of the results.

Chains of the proteins cited; added tags and fusions are not shown. Lines headed by an entry give the natural chain unless they say otherwise; changes in a name come on top.
UniProt Q13069: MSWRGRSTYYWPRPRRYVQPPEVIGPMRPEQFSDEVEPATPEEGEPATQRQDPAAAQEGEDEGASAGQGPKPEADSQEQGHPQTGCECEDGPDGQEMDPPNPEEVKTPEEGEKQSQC
UniProt Q8WXD5: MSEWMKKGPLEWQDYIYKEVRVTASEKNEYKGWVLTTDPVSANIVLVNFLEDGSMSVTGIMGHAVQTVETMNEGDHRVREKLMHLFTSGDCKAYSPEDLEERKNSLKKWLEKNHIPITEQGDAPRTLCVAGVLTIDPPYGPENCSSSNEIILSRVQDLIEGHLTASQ
UniProt Q01167: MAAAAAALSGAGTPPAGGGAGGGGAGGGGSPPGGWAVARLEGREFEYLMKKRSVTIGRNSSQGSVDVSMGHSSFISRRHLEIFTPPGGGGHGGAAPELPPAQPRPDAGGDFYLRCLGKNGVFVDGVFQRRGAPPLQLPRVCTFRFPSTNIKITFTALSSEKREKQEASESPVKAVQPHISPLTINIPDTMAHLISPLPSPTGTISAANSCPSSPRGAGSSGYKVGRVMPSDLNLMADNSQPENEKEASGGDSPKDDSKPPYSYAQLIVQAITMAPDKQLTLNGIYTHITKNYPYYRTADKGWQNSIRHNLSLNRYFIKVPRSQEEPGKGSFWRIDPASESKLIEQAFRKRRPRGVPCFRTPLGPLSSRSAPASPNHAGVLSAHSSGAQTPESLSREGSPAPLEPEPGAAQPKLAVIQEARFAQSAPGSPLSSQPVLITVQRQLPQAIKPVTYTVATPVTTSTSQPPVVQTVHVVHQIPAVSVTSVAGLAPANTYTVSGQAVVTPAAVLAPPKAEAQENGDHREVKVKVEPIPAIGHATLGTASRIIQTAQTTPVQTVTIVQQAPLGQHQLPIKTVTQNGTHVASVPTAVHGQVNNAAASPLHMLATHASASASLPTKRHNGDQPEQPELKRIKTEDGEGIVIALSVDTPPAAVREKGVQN
UniProt Q9NY12: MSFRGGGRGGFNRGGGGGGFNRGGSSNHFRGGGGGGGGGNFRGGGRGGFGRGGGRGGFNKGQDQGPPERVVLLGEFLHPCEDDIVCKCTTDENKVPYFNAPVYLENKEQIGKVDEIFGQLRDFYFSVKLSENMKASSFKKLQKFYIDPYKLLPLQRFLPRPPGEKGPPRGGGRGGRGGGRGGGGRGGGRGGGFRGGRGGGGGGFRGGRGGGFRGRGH
UniProt P02794, whole entry, looked up: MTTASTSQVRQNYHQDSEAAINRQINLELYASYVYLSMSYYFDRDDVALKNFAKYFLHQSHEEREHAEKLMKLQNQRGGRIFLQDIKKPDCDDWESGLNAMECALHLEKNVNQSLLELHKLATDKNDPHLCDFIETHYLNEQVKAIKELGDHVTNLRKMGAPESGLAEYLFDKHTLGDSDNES
UniProt Q14C86: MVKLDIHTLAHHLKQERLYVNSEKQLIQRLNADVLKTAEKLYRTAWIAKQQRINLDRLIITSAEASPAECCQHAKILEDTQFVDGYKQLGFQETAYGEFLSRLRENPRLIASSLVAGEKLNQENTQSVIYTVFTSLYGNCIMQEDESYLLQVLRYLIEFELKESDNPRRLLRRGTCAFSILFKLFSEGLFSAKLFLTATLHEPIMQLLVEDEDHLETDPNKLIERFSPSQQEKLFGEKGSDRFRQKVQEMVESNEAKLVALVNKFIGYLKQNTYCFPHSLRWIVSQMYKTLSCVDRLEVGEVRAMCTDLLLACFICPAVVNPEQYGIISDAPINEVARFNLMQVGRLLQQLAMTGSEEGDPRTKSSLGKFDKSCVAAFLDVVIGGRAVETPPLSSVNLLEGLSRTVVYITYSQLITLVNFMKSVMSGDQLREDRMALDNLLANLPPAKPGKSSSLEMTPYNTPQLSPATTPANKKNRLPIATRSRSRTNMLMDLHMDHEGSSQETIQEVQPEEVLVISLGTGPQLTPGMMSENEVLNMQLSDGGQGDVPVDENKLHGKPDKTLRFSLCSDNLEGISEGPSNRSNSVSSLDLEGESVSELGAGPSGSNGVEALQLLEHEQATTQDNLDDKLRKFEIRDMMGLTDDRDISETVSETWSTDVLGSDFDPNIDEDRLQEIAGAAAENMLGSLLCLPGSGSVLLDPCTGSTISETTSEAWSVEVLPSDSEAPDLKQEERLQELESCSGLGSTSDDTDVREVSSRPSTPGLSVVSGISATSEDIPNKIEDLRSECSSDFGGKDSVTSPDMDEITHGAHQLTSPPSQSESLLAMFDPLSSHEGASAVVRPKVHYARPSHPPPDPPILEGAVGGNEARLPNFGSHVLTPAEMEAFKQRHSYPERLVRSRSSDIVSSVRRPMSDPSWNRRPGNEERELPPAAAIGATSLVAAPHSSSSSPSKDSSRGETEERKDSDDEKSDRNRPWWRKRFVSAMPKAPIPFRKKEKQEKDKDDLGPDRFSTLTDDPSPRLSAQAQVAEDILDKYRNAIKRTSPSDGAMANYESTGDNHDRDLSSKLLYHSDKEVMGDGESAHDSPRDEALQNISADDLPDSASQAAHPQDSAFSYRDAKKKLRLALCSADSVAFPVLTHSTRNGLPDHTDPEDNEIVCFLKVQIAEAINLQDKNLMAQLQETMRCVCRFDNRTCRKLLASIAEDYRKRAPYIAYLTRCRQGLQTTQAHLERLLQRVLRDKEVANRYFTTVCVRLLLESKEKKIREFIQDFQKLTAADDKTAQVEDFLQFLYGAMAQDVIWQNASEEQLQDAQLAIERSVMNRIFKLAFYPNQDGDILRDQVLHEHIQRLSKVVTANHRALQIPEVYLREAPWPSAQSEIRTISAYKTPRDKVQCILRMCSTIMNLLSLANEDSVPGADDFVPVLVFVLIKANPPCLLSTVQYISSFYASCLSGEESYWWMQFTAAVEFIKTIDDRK
UniProt P23434: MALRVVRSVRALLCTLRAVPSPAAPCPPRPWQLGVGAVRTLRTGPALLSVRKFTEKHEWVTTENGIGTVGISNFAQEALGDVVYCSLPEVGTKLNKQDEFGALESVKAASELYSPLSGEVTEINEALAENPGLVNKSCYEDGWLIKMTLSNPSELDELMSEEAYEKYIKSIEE
UniProt Q06547, whole entry, looked up: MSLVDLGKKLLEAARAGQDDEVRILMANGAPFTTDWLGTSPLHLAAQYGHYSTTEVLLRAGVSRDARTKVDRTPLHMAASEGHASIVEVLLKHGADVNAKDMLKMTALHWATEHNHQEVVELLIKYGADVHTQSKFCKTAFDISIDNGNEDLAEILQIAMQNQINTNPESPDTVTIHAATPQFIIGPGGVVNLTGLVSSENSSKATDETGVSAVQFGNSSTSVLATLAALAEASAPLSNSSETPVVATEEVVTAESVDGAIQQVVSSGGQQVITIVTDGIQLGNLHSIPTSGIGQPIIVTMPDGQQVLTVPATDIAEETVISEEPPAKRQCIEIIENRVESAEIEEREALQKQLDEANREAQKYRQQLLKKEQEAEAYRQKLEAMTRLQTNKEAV
UniProt P22102: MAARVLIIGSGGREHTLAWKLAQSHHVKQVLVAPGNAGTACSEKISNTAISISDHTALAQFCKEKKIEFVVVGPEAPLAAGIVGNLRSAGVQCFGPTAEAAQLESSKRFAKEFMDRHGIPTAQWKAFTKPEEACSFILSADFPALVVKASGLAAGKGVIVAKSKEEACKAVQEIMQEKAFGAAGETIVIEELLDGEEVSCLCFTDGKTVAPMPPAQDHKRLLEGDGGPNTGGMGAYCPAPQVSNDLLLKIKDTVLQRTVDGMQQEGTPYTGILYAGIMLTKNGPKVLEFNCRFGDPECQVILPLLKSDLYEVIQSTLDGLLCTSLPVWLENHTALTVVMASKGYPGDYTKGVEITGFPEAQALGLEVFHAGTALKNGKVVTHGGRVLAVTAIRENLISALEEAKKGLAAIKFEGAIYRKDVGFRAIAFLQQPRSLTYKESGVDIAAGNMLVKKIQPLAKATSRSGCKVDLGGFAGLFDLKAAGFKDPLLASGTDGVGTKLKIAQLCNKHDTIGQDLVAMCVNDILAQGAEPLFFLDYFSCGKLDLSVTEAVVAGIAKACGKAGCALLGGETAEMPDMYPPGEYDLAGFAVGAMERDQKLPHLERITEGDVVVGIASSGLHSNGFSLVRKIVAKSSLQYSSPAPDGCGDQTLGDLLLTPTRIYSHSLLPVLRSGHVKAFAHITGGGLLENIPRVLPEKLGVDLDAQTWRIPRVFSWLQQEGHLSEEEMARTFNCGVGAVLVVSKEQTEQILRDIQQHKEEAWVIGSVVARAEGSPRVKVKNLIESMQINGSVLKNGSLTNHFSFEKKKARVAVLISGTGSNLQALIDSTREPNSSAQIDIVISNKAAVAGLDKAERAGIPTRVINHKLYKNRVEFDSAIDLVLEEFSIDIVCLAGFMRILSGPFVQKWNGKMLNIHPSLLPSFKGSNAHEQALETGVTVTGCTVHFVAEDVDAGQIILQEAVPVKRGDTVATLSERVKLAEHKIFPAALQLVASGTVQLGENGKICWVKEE
UniProt Q04446: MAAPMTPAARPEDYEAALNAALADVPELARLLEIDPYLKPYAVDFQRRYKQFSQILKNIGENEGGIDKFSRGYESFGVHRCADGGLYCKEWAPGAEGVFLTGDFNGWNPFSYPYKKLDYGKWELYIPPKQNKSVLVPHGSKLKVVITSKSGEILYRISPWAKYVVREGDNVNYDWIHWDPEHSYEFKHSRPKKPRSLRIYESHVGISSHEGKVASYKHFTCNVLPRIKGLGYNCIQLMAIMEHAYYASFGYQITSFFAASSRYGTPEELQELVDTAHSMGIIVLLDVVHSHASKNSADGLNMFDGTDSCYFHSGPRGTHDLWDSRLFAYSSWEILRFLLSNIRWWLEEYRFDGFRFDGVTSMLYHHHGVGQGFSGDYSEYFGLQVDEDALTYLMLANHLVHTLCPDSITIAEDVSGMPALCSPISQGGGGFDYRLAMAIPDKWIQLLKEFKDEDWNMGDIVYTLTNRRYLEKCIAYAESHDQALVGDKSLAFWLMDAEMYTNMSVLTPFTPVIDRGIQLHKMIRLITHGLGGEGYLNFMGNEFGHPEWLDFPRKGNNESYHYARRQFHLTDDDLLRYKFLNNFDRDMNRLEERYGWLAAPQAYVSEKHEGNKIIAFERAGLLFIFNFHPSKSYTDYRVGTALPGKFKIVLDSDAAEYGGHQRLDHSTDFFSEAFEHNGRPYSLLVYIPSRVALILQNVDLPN
UniProt P85037: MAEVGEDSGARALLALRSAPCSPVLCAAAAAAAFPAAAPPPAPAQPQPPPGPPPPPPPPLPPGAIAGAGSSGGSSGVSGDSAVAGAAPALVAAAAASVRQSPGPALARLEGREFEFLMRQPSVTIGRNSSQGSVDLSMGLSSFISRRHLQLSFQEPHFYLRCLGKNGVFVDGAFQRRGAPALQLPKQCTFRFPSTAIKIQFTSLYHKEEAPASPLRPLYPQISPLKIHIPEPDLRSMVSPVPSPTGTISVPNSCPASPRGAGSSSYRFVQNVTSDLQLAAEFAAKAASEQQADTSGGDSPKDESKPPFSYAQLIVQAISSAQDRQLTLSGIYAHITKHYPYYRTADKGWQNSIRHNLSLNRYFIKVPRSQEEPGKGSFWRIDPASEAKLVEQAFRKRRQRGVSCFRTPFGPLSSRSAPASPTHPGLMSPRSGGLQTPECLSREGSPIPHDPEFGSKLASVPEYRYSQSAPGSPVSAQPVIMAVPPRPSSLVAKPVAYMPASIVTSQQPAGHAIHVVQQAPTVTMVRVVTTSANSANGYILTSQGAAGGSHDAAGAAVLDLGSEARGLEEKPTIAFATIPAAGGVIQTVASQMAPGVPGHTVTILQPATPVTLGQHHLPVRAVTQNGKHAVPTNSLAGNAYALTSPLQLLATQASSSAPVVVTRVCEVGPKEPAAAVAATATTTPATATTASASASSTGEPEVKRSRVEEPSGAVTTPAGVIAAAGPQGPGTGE
UniProt P41250: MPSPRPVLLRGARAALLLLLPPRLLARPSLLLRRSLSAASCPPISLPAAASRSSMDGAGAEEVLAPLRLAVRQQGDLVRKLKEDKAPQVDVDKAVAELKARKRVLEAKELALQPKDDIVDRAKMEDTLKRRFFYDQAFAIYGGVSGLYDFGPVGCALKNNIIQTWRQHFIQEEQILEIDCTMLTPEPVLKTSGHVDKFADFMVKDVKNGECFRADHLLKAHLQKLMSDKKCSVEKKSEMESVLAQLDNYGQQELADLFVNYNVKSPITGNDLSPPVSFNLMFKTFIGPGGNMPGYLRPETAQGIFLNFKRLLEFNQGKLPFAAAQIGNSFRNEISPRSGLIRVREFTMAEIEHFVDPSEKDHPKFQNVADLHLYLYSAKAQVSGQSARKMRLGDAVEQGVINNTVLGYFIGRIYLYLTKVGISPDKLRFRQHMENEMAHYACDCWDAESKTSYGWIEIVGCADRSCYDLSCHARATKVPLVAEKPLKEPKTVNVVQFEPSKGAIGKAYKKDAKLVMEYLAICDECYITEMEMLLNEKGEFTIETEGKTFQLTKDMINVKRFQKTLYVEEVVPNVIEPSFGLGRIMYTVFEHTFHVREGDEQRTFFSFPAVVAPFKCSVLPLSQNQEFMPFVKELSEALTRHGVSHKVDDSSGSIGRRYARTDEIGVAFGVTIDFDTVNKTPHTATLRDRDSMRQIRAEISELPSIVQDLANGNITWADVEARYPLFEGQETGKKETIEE

How the values were obtained:
Experiment in all cases: log2 fold change, soluble protein after heating vs DMSO (PISA); higher = thermal stabilisation; K562 lysate, 10 uM; active = over 0.2 and 3.5 SD of the protein, either way, in both replicates (recomputed)
alvocidib = compound: CN1CC[C@H](c2c(O)cc(O)c3c(=O)cc(-c4ccccc4Cl)oc23)[C@H](O)C1 [alvocidib]
In short: (§1)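 Quantification was by TMTpro 16plex LC-MS/MS with equalised channel sums, applied to the supernatant after 21,000xg for 90 min. Samples were crude K562 extract at 1 mg/mL protein in PBS pH 7.4 with 1 mM MgCl2, treated with 10 μM compound for 30 min, heated for 3 min across 48°C-58°C, pooled and brought to 0.5% NP-40 at 4°C. Values are log-two fold changes in thermal stability relative to solvent controls, from duplicates.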

Tubastatin A = compound: CN1CCc2c(c3ccccc3n2Cc2ccc(C(=O)NO)cc2)C1 [Tubastatin A]
In short: as §1

[1] = compound: CNC(=O)C1=CC=CC=C1NC2=NC(=NC=C2Cl)NC3=C(C=C(C=C3)N4CCOCC4)OC
In short: as §1

defactinib = compound: CNC(=O)c1ccc(Nc2ncc(C(F)(F)F)c(NCc3nccnc3N(C)S(C)(=O)=O)n2)cc1 [defactinib]
In short: as §1

[2] = compound: CNc1nc(-c2ccc3c(N)n[nH]c3c2)cc(N2C[C@@H](C(=O)NC3CCCCC3)CC[C@H]2C)n1
In short: as §1

encorafenib = compound: COC(=O)N[C@@H](C)CNc1nccc(-c2cn(C(C)C)nc2-c2cc(Cl)cc(NS(C)(=O)=O)c2F)n1 [encorafenib]
In short: as §1

[3] = compound: COC(=O)[C@H](CCSC)NC(=O)C1=C(C=C(C=C1)NC[C@H](CS)N)C2=CC=CC=C2
In short: as §1

alisertib = compound: COc1cc(Nc2ncc3c(n2)-c2ccc(Cl)cc2C(c2c(F)cccc2OC)=NC3)ccc1C(=O)O [alisertib]
In short: as §1

[4] = compound: COc1cc2nc(-c3cc(F)ccc3O)nc(N[C@@H]3CNC[C@H]3C(C)(C)O)c2cc1OC
In short: as §1

gefitinib = compound: COc1cc2ncnc(Nc3ccc(F)c(Cl)c3)c2cc1OCCCN1CCOCC1 [gefitinib]
In short: as §1

lapatinib = compound: CS(=O)(=O)CCNCc1ccc(-c2ccc3ncnc(Nc4ccc(OCc5cccc(F)c5)c(Cl)c4)c3c2)o1 [lapatinib]
In short: as §1

pictilisib = compound: CS(=O)(=O)N1CCN(Cc2cc3nc(-c4cccc5[nH]ncc45)nc(N4CCOCC4)c3s2)CC1 [pictilisib]
In short: as §1

crizotinib = compound: C[C@@H](Oc1cc(-c2cnn(C3CCNCC3)c2)cnc1N)c1c(Cl)ccc(F)c1Cl [crizotinib]
In short: as §1

[5] = compound: C[C@H](C1=CC=C(C=C1)C(=O)NC2=C3C=CNC3=NC=C2)N
In short: as §1

duvelisib = compound: C[C@H](Nc1ncnc2nc[nH]c12)c1cc2cccc(Cl)c2c(=O)n1-c1ccccc1 [duvelisib]
In short: as §1

gandotinib = compound: Cc1cc(Nc2cc(CN3CCOCC3)c3nc(C)c(Cc4ccc(Cl)cc4F)n3n2)n[nH]1 [gandotinib]
In short: as §1

tozasertib = compound: Cc1cc(Nc2cc(N3CCN(C)CC3)nc(Sc3ccc(NC(=O)C4CC4)cc3)n2)n[nH]1 [tozasertib]
In short: as §1

doramapimod = compound: Cc1ccc(-n2nc(C(C)(C)C)cc2NC(=O)Nc2ccc(OCCN3CCOCC3)c3ccccc23)cc1 [doramapimod]
In short: as §1

bafetinib = compound: Cc1ccc(NC(=O)c2ccc(CN3CC[C@H](N(C)C)C3)c(C(F)(F)F)c2)cc1Nc1nccc(-c2cncnc2)n1 [bafetinib]
In short: as §1

[6] = compound: Cc1cccc(CC(=O)N2CCc3c2ccc(-c2cn(C)c4ncnc(N)c24)c3F)n1
In short: as §1

Measured: log2 fold change

GAB2 (UniProt Q9UQC2)
inactive: alvocidib -0.037 | Tubastatin A -0.143 | [1] 0.047 | defactinib -0.046 | [2] -0.017 | encorafenib 0.014 | [3] 0.027 | alisertib -0.03 | [4] 0.034 | gefitinib 0.029 | lapatinib 0.007 | pictilisib -0.023 | crizotinib -0.013 | [5] -0.014 | duvelisib 0.014 | gandotinib 0.031 | tozasertib 0.004 | doramapimod 0.012 | bafetinib 0.003 | [6] 0.064

GAGE5 (UniProt Q13069)
inactive: alvocidib 0.036 | Tubastatin A 0.13 | [1] -0.009 | defactinib 0.115 | [2] 0.05 | encorafenib 0.04 | [3] -0.133 | alisertib 0.042 | [4] -0.021 | gefitinib -0.058 | lapatinib 0.097 | pictilisib -0.039 | crizotinib 0.023 | [5] 0.016 | duvelisib 0.066 | gandotinib -0.068 | tozasertib -0.056 | doramapimod 0.002 | bafetinib -0.016 | [6] -0.022

GEMIN6 (UniProt Q8WXD5)
inactive: alvocidib -0.06 | Tubastatin A -0.018 | [1] -0.011 | defactinib -0.047 | [2] 0.092 | encorafenib -0.008 | [3] -0.175 | alisertib -0.027 | [4] 0.004 | gefitinib 0.004 | lapatinib -0.042 | pictilisib 0.002 | crizotinib 0.071 | [5] -0.094 | duvelisib -0.011 | gandotinib 0.082 | tozasertib -0.082 | doramapimod -0.045 | bafetinib -0.01 | [6] 0.051

FOXK2 (UniProt Q01167)
inactive: alvocidib -0.006 | Tubastatin A 0.063 | [1] 0.01 | defactinib 0.073 | [2] -0.021 | encorafenib 0.004 | [3] 0.09 | alisertib -0.036 | [4] 0.025 | gefitinib -0.007 | lapatinib 0.032 | pictilisib -0.035 | crizotinib 0.05 | [5] 0.011 | duvelisib 0.021 | gandotinib 0.051 | tozasertib 0.051 | doramapimod 0.01 | bafetinib -0.051 | [6] -0.013

GAR1 (UniProt Q9NY12)
inactive: alvocidib 0.053 | Tubastatin A -0.009 | [1] -0.012 | defactinib -0.021 | [2] 0.081 | encorafenib -0.024 | [3] 0.03 | alisertib -0.001 | [4] 0 | gefitinib -0.033 | lapatinib -0.019 | pictilisib -0.011 | crizotinib -0.024 | [5] 0.103 | duvelisib 0.043 | gandotinib -0.094 | tozasertib -0.032 | doramapimod -0.01 | bafetinib -0.044 | [6] -0.098

FTH1 (UniProt P02794)
inactive: alvocidib 0.026 | Tubastatin A -0.004 | [1] 0.011 | defactinib 0.03 | [2] -0.024 | encorafenib 0.015 | [3] -0.049 | alisertib -0.034 | [4] -0.009 | gefitinib 0.01 | lapatinib -0.004 | pictilisib -0.01 | crizotinib 0.005 | [5] -0.005 | duvelisib 0.044 | gandotinib -0.003 | tozasertib 0.031 | doramapimod 0.009 | bafetinib -0.088 | [6] -0.009

GAPVD1 isoform 6 (UniProt Q14C86)
inactive: alvocidib 0.01 | Tubastatin A -0.112 | [1] 0.015 | defactinib 0.018 | [2] -0.04 | encorafenib 0.014 | [3] 0.097 | alisertib 0.005 | [4] -0.017 | gefitinib -0.012 | lapatinib 0 | pictilisib -0.017 | crizotinib -0.023 | [5] 0.054 | duvelisib 0.011 | gandotinib -0.088 | tozasertib -0.002 | doramapimod 0.025 | bafetinib -0.022 | [6] -0.018

GCSH (UniProt P23434)
inactive: alvocidib -0.054 | Tubastatin A 0.127 | [1] -0.001 | defactinib 0.043 | [2] -0.005 | encorafenib 0.01 | [3] -0.042 | alisertib -0.037 | [4] -0.017 | gefitinib 0.008 | lapatinib 0.084 | pictilisib 0.079 | crizotinib 0.021 | [5] -0.099 | duvelisib 0.01 | gandotinib 0.041 | tozasertib -0.079 | doramapimod -0.046 | bafetinib 0.072 | [6] 0.062

FTO (UniProt Q9C0B1)
inactive: alvocidib -0.003 | Tubastatin A -0.03 | [1] -0.001 | defactinib -0.027 | [2] 0.026 | encorafenib -0.023 | [3] -0.006 | alisertib 0.002 | [4] -0.008 | gefitinib -0.002 | lapatinib -0.016 | pictilisib -0.047 | crizotinib -0.006 | [5] -0.039 | duvelisib -0.012 | gandotinib 0.036 | tozasertib 0.011 | doramapimod -0.012 | bafetinib -0.011 | [6] 0.02

GABPB1 (UniProt Q06547)
inactive: alvocidib 0.181 | Tubastatin A -0.001 | [1] -0.028 | defactinib 0.005 | [2] 0 | encorafenib 0.036 | [3] 0.097 | alisertib -0.016 | [4] -0.043 | gefitinib 0.024 | lapatinib -0.042 | pictilisib -0.052 | crizotinib 0.021 | [5] 0.192 | duvelisib 0.018 | gandotinib -0.194 | tozasertib -0.004 | doramapimod 0.026 | bafetinib -0.071 | [6] -0.082

GATAD2B (UniProt Q8WXI9)
inactive: alvocidib -0.01 | Tubastatin A -0.005 | [1] 0.003 | defactinib -0.002 | [2] 0.017 | encorafenib -0.007 | [3] 0 | alisertib -0.021 | [4] 0.021 | gefitinib -0.051 | lapatinib 0.024 | pictilisib 0.008 | crizotinib -0.032 | [5] 0.02 | duvelisib -0.044 | gandotinib 0.015 | tozasertib 0.067 | doramapimod -0.011 | bafetinib -0.022 | [6] -0.01

GART (UniProt P22102)
inactive: alvocidib 0.021 | Tubastatin A -0.073 | [1] 0.002 | defactinib -0.024 | [2] 0.021 | encorafenib -0.027 | [3] 0.08 | alisertib 0.008 | [4] -0.004 | gefitinib -0.017 | lapatinib -0.008 | pictilisib -0.024 | crizotinib -0.017 | [5] 0.062 | duvelisib -0.014 | gandotinib -0.052 | tozasertib -0.004 | doramapimod 0 | bafetinib -0.001 | [6] -0.026

GBE1 (UniProt Q04446)
inactive: alvocidib 0.006 | Tubastatin A -0.013 | [1] -0.012 | defactinib -0.045 | [2] 0.022 | encorafenib 0.043 | [3] 0.009 | alisertib 0.013 | [4] 0.009 | gefitinib 0.071 | lapatinib 0.001 | pictilisib -0.035 | crizotinib -0.047 | [5] 0.058 | duvelisib -0.028 | gandotinib -0.118 | tozasertib 0.041 | doramapimod 0.018 | bafetinib -0.03 | [6] -0.022

GALT (UniProt P07902)
inactive: alvocidib -0.024 | Tubastatin A 0.087 | [1] 0.012 | defactinib 0.103 | [2] 0.108 | encorafenib 0.001 | [3] 0.076 | alisertib -0.073 | [4] 0.038 | gefitinib 0.024 | lapatinib 0.009 | pictilisib -0.027 | crizotinib -0.006 | [5] -0.055 | duvelisib -0.056 | gandotinib 0.079 | tozasertib 0.003 | doramapimod 0.054 | bafetinib -0.054 | [6] 0.107

FOXK1 (UniProt P85037)
inactive: alvocidib -0.037 | Tubastatin A -0.116 | [1] 0.025 | defactinib 0.003 | [2] 0.059 | encorafenib 0.009 | [3] 0.09 | alisertib 0.016 | [4] 0.014 | gefitinib 0.003 | lapatinib 0.006 | pictilisib -0.036 | crizotinib 0.025 | [5] -0.024 | duvelisib -0.043 | gandotinib 0.002 | tozasertib 0.009 | doramapimod 0.035 | bafetinib 0.029 | [6] 0.034

GARS1 (UniProt P41250)
inactive: alvocidib 0.003 | Tubastatin A 0.051 | [1] -0.01 | defactinib -0.013 | [2] 0.024 | encorafenib -0.035 | [3] -0.124 | alisertib 0.004 | [4] 0.016 | gefitinib 0.003 | lapatinib -0.005 | pictilisib 0.002 | crizotinib 0.032 | [5] 0.007 | duvelisib 0.019 | gandotinib 0.021 | tozasertib 0.004 | doramapimod -0.009 | bafetinib 0.038 | [6] -0.023

Quoted from above (2 entries):
GAR1 (UniProt Q9NY12)
inactive: alvocidib 0.053 | Tubastatin A -0.009 | [1] -0.012 | defactinib -0.021 | [2] 0.081 | encorafenib -0.024 | [3] 0.03 | alisertib -0.001 | [4] 0 | gefitinib -0.033 | lapatinib -0.019 | pictilisib -0.011 | crizotinib -0.024 | [5] 0.103 | duvelisib 0.043 | gandotinib -0.094 | tozasertib -0.032 | doramapimod -0.01 | bafetinib -0.044 | [6] -0.098

FTH1 (UniProt P02794)
inactive: alvocidib 0.026 | Tubastatin A -0.004 | [1] 0.011 | defactinib 0.03 | [2] -0.024 | encorafenib 0.015 | [3] -0.049 | alisertib -0.034 | [4] -0.009 | gefitinib 0.01 | lapatinib -0.004 | pictilisib -0.01 | crizotinib 0.005 | [5] -0.005 | duvelisib 0.044 | gandotinib -0.003 | tozasertib 0.031 | doramapimod 0.009 | bafetinib -0.088 | [6] -0.009
